No constants are given. Whether binding was seen depends on the method and setting. Some results given as binding are weak or reduced against the parent protein; the word gives no strength.
Target: T1, full-length human Apaf-1 (residues 1–1248) (human), O14727
T1 chain: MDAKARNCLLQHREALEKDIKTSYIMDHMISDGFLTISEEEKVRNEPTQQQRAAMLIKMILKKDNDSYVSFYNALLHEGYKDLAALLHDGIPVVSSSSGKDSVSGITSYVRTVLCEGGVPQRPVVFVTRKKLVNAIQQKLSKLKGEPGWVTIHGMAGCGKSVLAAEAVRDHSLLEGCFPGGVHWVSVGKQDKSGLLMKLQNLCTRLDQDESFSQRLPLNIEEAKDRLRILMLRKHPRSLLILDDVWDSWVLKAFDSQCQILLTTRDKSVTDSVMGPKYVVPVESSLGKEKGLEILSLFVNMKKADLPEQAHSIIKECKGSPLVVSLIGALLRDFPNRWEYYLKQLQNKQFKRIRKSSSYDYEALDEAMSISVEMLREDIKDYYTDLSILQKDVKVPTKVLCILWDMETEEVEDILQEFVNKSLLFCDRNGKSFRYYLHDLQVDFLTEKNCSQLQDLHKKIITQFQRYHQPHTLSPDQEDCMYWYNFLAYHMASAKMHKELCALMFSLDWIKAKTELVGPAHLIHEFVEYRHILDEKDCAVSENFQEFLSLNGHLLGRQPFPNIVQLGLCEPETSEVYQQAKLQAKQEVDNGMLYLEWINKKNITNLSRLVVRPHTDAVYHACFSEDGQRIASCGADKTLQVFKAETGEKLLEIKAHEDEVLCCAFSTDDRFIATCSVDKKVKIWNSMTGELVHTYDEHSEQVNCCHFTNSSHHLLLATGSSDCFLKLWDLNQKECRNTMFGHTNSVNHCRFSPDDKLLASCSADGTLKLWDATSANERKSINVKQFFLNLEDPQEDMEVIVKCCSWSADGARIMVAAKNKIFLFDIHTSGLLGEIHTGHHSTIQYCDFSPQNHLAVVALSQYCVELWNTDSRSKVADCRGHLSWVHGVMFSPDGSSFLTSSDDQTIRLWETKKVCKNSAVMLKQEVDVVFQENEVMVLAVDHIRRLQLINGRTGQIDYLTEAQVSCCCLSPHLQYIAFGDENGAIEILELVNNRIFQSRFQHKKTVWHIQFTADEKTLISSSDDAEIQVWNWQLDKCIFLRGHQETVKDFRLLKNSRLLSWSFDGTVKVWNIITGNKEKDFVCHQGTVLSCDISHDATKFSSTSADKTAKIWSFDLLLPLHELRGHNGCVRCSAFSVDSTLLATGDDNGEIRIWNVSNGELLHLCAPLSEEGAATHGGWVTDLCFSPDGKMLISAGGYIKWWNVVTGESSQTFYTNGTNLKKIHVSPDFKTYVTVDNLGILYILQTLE
Assay: SEC; gel filtration of apoptosome formation: Apaf-1 with CytC in the presence of 1 mM dATP; both purified
Conditions: remark: other sources report otherwise

binding: binds
B1: full-length human Apaf-1 (residues 1–1248), O14727 1-1248 (natural protein)
chain: MDAKARNCLLQHREALEKDIKTSYIMDHMISDGFLTISEEEKVRNEPTQQQRAAMLIKMILKKDNDSYVSFYNALLHEGYKDLAALLHDGIPVVSSSSGKDSVSGITSYVRTVLCEGGVPQRPVVFVTRKKLVNAIQQKLSKLKGEPGWVTIHGMAGCGKSVLAAEAVRDHSLLEGCFPGGVHWVSVGKQDKSGLLMKLQNLCTRLDQDESFSQRLPLNIEEAKDRLRILMLRKHPRSLLILDDVWDSWVLKAFDSQCQILLTTRDKSVTDSVMGPKYVVPVESSLGKEKGLEILSLFVNMKKADLPEQAHSIIKECKGSPLVVSLIGALLRDFPNRWEYYLKQLQNKQFKRIRKSSSYDYEALDEAMSISVEMLREDIKDYYTDLSILQKDVKVPTKVLCILWDMETEEVEDILQEFVNKSLLFCDRNGKSFRYYLHDLQVDFLTEKNCSQLQDLHKKIITQFQRYHQPHTLSPDQEDCMYWYNFLAYHMASAKMHKELCALMFSLDWIKAKTELVGPAHLIHEFVEYRHILDEKDCAVSENFQEFLSLNGHLLGRQPFPNIVQLGLCEPETSEVYQQAKLQAKQEVDNGMLYLEWINKKNITNLSRLVVRPHTDAVYHACFSEDGQRIASCGADKTLQVFKAETGEKLLEIKAHEDEVLCCAFSTDDRFIATCSVDKKVKIWNSMTGELVHTYDEHSEQVNCCHFTNSSHHLLLATGSSDCFLKLWDLNQKECRNTMFGHTNSVNHCRFSPDDKLLASCSADGTLKLWDATSANERKSINVKQFFLNLEDPQEDMEVIVKCCSWSADGARIMVAAKNKIFLFDIHTSGLLGEIHTGHHSTIQYCDFSPQNHLAVVALSQYCVELWNTDSRSKVADCRGHLSWVHGVMFSPDGSSFLTSSDDQTIRLWETKKVCKNSAVMLKQEVDVVFQENEVMVLAVDHIRRLQLINGRTGQIDYLTEAQVSCCCLSPHLQYIAFGDENGAIEILELVNNRIFQSRFQHKKTVWHIQFTADEKTLISSSDDAEIQVWNWQLDKCIFLRGHQETVKDFRLLKNSRLLSWSFDGTVKVWNIITGNKEKDFVCHQGTVLSCDISHDATKFSSTSADKTAKIWSFDLLLPLHELRGHNGCVRCSAFSVDSTLLATGDDNGEIRIWNVSNGELLHLCAPLSEEGAATHGGWVTDLCFSPDGKMLISAGGYIKWWNVVTGESSQTFYTNGTNLKKIHVSPDFKTYVTVDNLGILYILQTLE
